This data set has as its target T1, CsiR (Escherichia coli BW25113 (K-12)) (UniProt P37338).
T1 sequence (looked up): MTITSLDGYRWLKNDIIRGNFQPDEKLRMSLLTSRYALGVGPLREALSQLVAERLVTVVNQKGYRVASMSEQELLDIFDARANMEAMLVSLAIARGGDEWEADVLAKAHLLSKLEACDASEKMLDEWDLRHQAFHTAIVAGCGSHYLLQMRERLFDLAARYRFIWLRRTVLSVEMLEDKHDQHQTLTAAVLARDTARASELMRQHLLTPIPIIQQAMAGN
The experiment in a line: filter binding. The note with it: 5 mM MgCl2, Filter binding: 50 mM Tris-HCl, 100 mM KCl, 50 mM NaCl, 5 mM MgCl2, pH 7.6, 15 min, recombinant protein, residues 1-220, protein details: N-terminal 6xHis (pET28a, NdeI/XhoI sites), label: 5'-32P on MS161 strand, probe letters rebuilt from the primers and the genome.

For at least one entry, the source does not settle the construct or the ends of the probe. Weaker means in comparison with the reference protein, sequence or condition of that experiment. Where a protein sequence is shown, tags need not be part of it. At least one verdict was read from the data and is not stated in words by the source.

Consider “CCCGATAAAACGGGGCAGATAATATGTTTAGTTTACTAACGGTCATTTTGCAGTGAAGCCATTTACTGTTTTTTATCGACCAGATAATCTGTTCTCTAATGTTAACTCCCCCTAACCTGTTGCTTTAGTTATTCATTTCCTGTCTCACTTTGCCTTAATACCCTACGTTAAATGTTACTAATTTGTTGCTTTTGATCACAATAAGAAAACAATATGTCGCTTTTGTGCGCATTTTTCAGAAATGTAGATATTTTTAGATTATGGCTACGAAATGAGCATCGCCATGTCACCCTACATCTCATAAGAGGATCGCTTCTGATGAATGCACTGACCGCCGTACAAAATAACGCTGTCGATTCAGGCCAGGACTAT (double strand) [csiD promoter PCR product MS161/MS162]”, for which the binding result (1 mM alpha-ketoglutarate (lesser effect than glutarate)) was “binds more weakly”, the binding result (1 mM glutarate) is recorded as “binds more weakly” and the binding result (no ligand (control)) was “binds”.

(Values after article PMC6265302, “Widespread bacterial lysine degradation proceeding via glutarate and L-2-hydroxyglutarate” (Nature Communications, 2018).)
